assay: Comparative reactivity of carbonyl moieties with n-butylamine; settings: n-butylamine in MeOH, 24 hours at 37° C.

Structure (SMILES)	conversion to imine
CC(C)Oc1ccc(C=O)cc1 [Compound 8a, 4-isopropoxybenzaldehyde]	> 90%

same assay, conditions: n-butylamine in MeOH, 24 hours at 37° C., then NaBH3CN

Structure (SMILES)	Imine/SM ratio
COc1ccc(CN2CCN(CC(=O)c3ccc(OC(C)C)cc3)CC2)cc1 [Compound 8g, 1-(4-isopropoxyphenyl)-2-(4-(4-methoxybenzyl)piperazin-1-yl)ethan-1-one]	1/4
CC(=O)c1ccc(OC(C)C)cc1 [Compound 8b, 1-(4-isopropoxyphenyl)ethan-1-one]	3/1
CC(C)Oc1ccc(C=O)cc1 [Compound 8a, 4-isopropoxybenzaldehyde]	10/1
CC(C)Oc1ccc(C(=O)CN2CCNCC2)cc1 [Compound 8h, 1-(4-isopropoxyphenyl)-2-(piperazin-1-yl)ethan-1-one]	1/7
CC(C)Oc1ccc(C(=O)CF)cc1 [Compound 8c, 2-fluoro-1-(4-isopropoxyphenyl)ethan-1-one]	1/1
